The values below come from PubChem BioAssay AID2685 (National Center for Advancing Translational Sciences (NCATS), 2010).

Some of the results follow. Further columns of the screen follow, without active or inactive calls. Compounds called inactive in the main read-out are mostly missing here. The note in brackets gives the kind of curve behind each potency; many fits are weak.

Broadly, the AC50 is the concentration at which the activity in the assay is half-maximal. A high value points to activity only at high concentration.

The nature of this assay: qHTS Assay for Lipid Storage Modulators in Drosophila S3 Cells.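 On cell number change: cells counted by Cell Tracker Red CMTPX staining in the red channel.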 To be noted: BODIPY lipid droplet fluorescence, 18-24 h; for cell number change: measured here: cell count max response, cells fed with added oleic acid. Put shortly:
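Drosophila S3 cells got compounds at several concentrations plus oleic acid (400 uM solution). Laser-scanning cytometry with 488 nm excitation read lipid droplets at 500-530 nm and cells at 575-640 nm. Percent activity was relative to 20 uM Triacsin C.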
Background: Quantitative high-throughput screening tests each substance at several concentrations.

[1] abbreviates: measured here: cell number channel AC50, cells fed with added oleic acid.
The mark [2] stands for this setting: measured here: lipid fluorescence (Fed channel) AC50, cells fed with added oleic acid.

Take `Cc1ccc(NC(=O)COC(=O)C2CSC3(C)CCC(=O)N23)cc1S(=O)(=O)N1CCOCC1` (configuration not stated): the cell number change worked out at 45.6%. Further, the AC50 under setting [1] was 32.6 µM [rising, partial curve, poor fit]. Also, the AC50 under setting [2] is 16.4 µM [rising, single point].
As to `NS(=O)(=O)c1cc(C(=O)OCC(=O)NC2CC2)ccc1Cl`, the cell number change was -66.2%. The AC50 under setting [1] was 29.1 µM [falling, single point]. For the same molecule, under setting [2], the AC50 was 29.1 µM [falling, single point].
Consider `Cc1cc(C)c(C(=O)Nn2c(C)nc3ccccc3c2=O)cc1C`, for which the cell number change was 11.7%.
Consider `Cc1ccc(S(=O)(=O)CC(=O)c2cc(C)c(O)c(C)c2)cc1`, for which the cell number change stood at 81%. The AC50 under setting [1] was 29.1 µM [rising, single point]. In addition, the AC50 under setting [2] was 29.1 µM [rising, single point].
Take `Cc1ccc(S(=O)(=O)c2c(C)cc(C)nc2N2CCCC2)cc1`: the cell number change was determined as 2.6%.
The same measure, in the same setting: as for `Cc1cc(C(=O)NCC(=O)OCC(=O)NCCc2ccccc2)ccc1[N+](=O)[O-]`, the figure is -27.9%.
On to `COc1ccc(C(F)(F)F)cc1N/C=C\c1nnnn1-c1ccccc1`, for which the cell number change turned out to be 27.3%. The AC50 under setting [1] is 0.731 µM [rising, partial curve, poor fit]. Further, the AC50 under setting [2] is 23.1 µM [falling, single point].
Consider `CCOC(=O)c1c(NC(=O)Cn2cc([N+](=O)[O-])cn2)sc2c1CCC2`, for which the cell number change was determined as 4.6%. Under setting [1], the AC50 was 0.411 µM [rising, partial curve, poor fit].
On to `O=S(=O)(Nc1ccc(N2CCOCC2)nn1)c1ccccc1`, for which the cell number change is 2.97%. Under setting [2], the AC50 was 0.116 µM [falling, full curve].
Turning to `COc1ccc(C2CC3(CC(C)(C)NC(=O)N3)Oc3cc(O)ccc32)cc1` (configuration not stated), the cell number change was -8.94%. In addition, the AC50 under setting [2] is 0.0184 µM [falling, full curve, poor fit].
As to `O=C(O)CSC1c2ccccc2C(=O)N1c1ccccc1` (configuration not stated), the cell number change is -46.5%. Besides, the AC50 under setting [1] was 32.6 µM [falling, single point]. Under setting [2], the AC50 was 23.1 µM [falling, single point].
`CN(CCc1ccccc1)C(=O)c1cc(COc2cccc(C(F)(F)F)c2)on1`: the cell number change came out at 11.2%. Moreover, the concentration at half-maximal activity (AC50) under setting [2] is 20.6 µM [falling, single point].
As to `COc1ccc(CCC(C)NCc2ccccc2OC)cc1` (configuration not stated), the cell number change is -5.8%.
Turning to `O=C(NCCS(=O)(=O)c1ccc(Br)cc1)c1ccc(Cl)cc1Cl`, the cell number change was determined as 25.3%. Further, the AC50 under setting [2] is 11.2 µM [rising, partial curve, poor fit].
For the molecule `Cc1oc(-c2ccccc2)cc1C(=O)Nc1cccc(/C=C\C(=O)O)c1`, the cell number change is 16.9%. Further, under setting [1], the AC50 is 0.092 µM [rising, full curve, poor fit]. For the same molecule, the AC50 under setting [2] is 0.13 µM [rising, full curve, poor fit].
Regarding `CC1CC(C)CN(CCCNC(=O)CCC(=O)N2CCOc3ccccc32)C1` (configuration not stated), the AC50 under setting [2] was 0.259 µM [rising, full curve].
For `CC(C)CCNC(=O)C(Cc1ccccc1)NS(=O)(=O)c1ccc2c(c1)c(=O)n(C)c(=O)n2C` (configuration not stated), the cell number change was determined as 5.94%.
Take `CC1=CC(=O)C(C(C)=Nc2ccccc2Cl)C(=O)O1` (configuration not stated): the cell number change worked out at 5.27%. Also, the AC50 under setting [2] is 0.058 µM [falling, full curve, poor fit].
Consider `CNC(=S)N(CCc1c(C)[nH]c2ccc(C)cc12)Cc1cc(OC)c(OC)c(OC)c1`, for which the cell number change turned out to be 19.5%. For the same molecule, the AC50 under setting [2] was 0.82 µM [rising, partial curve].
As for `COc1cccc(-n2c(Cc3cc(=O)[nH]c(=O)[nH]3)nnc2SCC(=O)NC2CCCC2)c1`, the cell number change was found to be 2.28%.
For the molecule `COc1ccccc1N1CCN(C(CNS(=O)(=O)c2ccccc2)c2cccnc2)CC1` (configuration not stated), the AC50 was 5.8 µM [rising, single point] under setting [1] and 2.31 µM [rising, partial curve] under setting [2].
`CCCN1c2cccc3cccc(c23)S1(=O)=O`: the cell number change was 1.56%. In addition, the half-maximal activity concentration (AC50) under setting [2] was 6.51 µM [falling, single point].
As to `COC(=O)c1ccccc1NC(=O)c1cc(C)no1`, the cell number change was -21.6%.
`CCOC(=O)N1CCC(NC(=O)Cn2cc3c(n2)CCCCC3)CC1`: the cell number change is -31.4%. Also, the AC50 under setting [1] is 32.6 µM [falling, partial curve, poor fit]. In addition, the AC50 under setting [2] is 20.6 µM [rising, single point].
With `CCOCCCNc1c(CC)c(C)c(C#N)c2nc3ccccc3n12`, the cell number change was -15.2%. Besides, under setting [2], the AC50 was 29.1 µM [falling, single point].
With `Cc1c(-c2c(C#N)c(N)nc3c2CCCCCC3)cnn1C`, the cell number change was 57.4%. For the same molecule, under setting [1], the half-maximal activity concentration (AC50) is 16.4 µM [rising, partial curve, poor fit].
Consider `O=C(O)c1ccc(S(=O)(=O)NC2CCCc3ccccc32)cc1` (configuration not stated), for which the cell number change was -7.58%.
As for `O=C(N/N=C/c1ccncc1)c1cccs1`, the cell number change was 18.7%. Further, the AC50 under setting [2] was 5.8 µM [rising, full curve, poor fit].
Regarding `CC(C)n1cnnc1SCC(=O)NCC(=O)Nc1ccc(F)cc1`, the cell number change was -7.39%. Also, under setting [1], the AC50 was 6.51 µM [falling, single point]. Under setting [2], the AC50 is 6.51 µM [falling, single point].
In the case of `COc1ccc(NC(=O)c2cc([N+](=O)[O-])ccc2O)cc1`, the cell number change is -59.8%. Under setting [1], the AC50 was 16.4 µM [falling, partial curve, poor fit]. For the same molecule, the AC50 under setting [2] is 6.51 µM [falling, partial curve].
Take `COc1ccc(/C=C2\SC(=O)N(CCNC(=O)Cc3coc4cc(C)ccc34)C2=O)cc1OC`: the cell number change was found to be 20.4%. Under setting [2], the AC50 is 3.26 µM [rising, partial curve, poor fit].
In the case of `CN1CCc2c(C#N)c(N3CCCCC3)nc(NCc3ccccc3)c2C1`, the cell number change is -43.5%. In addition, the half-maximal activity concentration (AC50) under setting [1] was 29.1 µM [falling, single point]. Further, the AC50 under setting [2] was 16.4 µM [falling, partial curve].
Take `Fc1ccc(C2C3=C(Nc4ncnn42)c2ccccc2OC3c2ccncc2)cc1` (configuration not stated): the cell number change came to 36.9%. Besides, under setting [1], the AC50 was 13 µM [rising, single point]. Also, the AC50 under setting [2] is 0.82 µM [falling, partial curve].
With `Fc1cc(F)c2nc(Nc3nc4c(F)cccc4s3)sc2c1`, the cell number change was -1.59%.
Still for that read-out and setting: as for `COc1ccccc1Nc1nnc(SC(C)C(=O)NC2CC2)s1` (configuration not stated), the figure is -12.2%.
In the case of `CC(=O)OCCNc1cc(N2CCN(C)CC2)c2noc3c2c1C(=O)c1ccccc1-3`, the cell number change is -17.2%. In addition, the AC50 under setting [2] was 13 µM [falling, single point].
With `CC1(C)NC(=O)N(CC(=O)O)C1=O`, the cell number change is -3.83%. Besides, the AC50 under setting [2] was 4.11 µM [rising, single point].
`C[C@H](NC(=O)c1ccccc1Cl)C(=O)OCC(=O)NNC(=O)c1cccs1`: the cell number change was 19%.
With `CCOc1cc(/C=N/NC(=O)c2cccnc2)ccc1OCC(=O)N(C)C`, the cell number change is 49.2%. In addition, under setting [2], the AC50 was 29.1 µM [rising, partial curve, poor fit].
On to `COc1ccccc1NC(=O)CCCc1nc(-c2ccc(OC)c(OC)c2)no1`, for which the cell number change came out at 26.6%.
Still for that read-out and setting: in the case of `CSc1ccc(S(=O)(=O)NCC(=O)OCC(=O)NCc2ccco2)cc1[N+](=O)[O-]` it was 10%.
For `CCOC(=O)c1ccc(-c2ccc(/C=N/NC(=O)CN(c3ccccc3Br)S(C)(=O)=O)o2)cc1`, the AC50 under setting [2] was 18.4 µM [falling, partial curve].
As to `Cc1ccc(NC(=O)Cn2cccc2C2=NC(c3ccccc3)CO2)cc1C` (configuration not stated), the cell number change was determined as 29.2%. In addition, the AC50 under setting [2] was 29.1 µM [rising, single point].
Consider `CC(=O)c1cc(CN2CCN(Cc3ccccc3)C(CCO)C2)cs1` (configuration not stated), for which the AC50 under setting [2] is 1.84 µM [falling, partial curve, poor fit].
With `Cc1ccc(C)c(Sc2ccc(S(=O)(=O)Nc3ccc(C(=O)O)cc3)cc2)c1`, the cell number change was -15.8%.
As to `O=C(O)C1CCCCC1C(=O)NCc1cn2ccccc2n1` (configuration not stated), the cell number change is -34.3%. Moreover, under setting [1], the AC50 is 4.11 µM [falling, full curve]. Also, under setting [2], the AC50 was 3.66 µM [falling, full curve].
In the case of `COCCn1c(SCc2nnc(-c3ccccc3)o2)nc2sc3c(c2c1=O)CCC3`, the cell number change was -10.3%.
With `CCOc1ccc(N(C(=O)C2CCCO2)C2C=CS(=O)(=O)C2)cc1` (configuration not stated), the cell number change is -33.4%. Moreover, the AC50 under setting [1] is 18.4 µM [falling, single point]. Under setting [2], the AC50 is 0.58 µM [falling, full curve].
`CC(=O)Nc1ccc(S(=O)(=O)N2CCC(C(=O)N[C@@H](Cc3ccccc3)C(=O)O)CC2)cc1`: the cell number change is 3.52%. The AC50 under setting [1] was 7.31 µM [rising, partial curve, poor fit]. Besides, under setting [2], the AC50 is 6.51 µM [rising, single point].
Take `CCCCn1c(=O)cc(N2CCOCC2)[nH]c1=O`: the cell number change was -105%. The half-maximal activity concentration (AC50) under setting [1] is 25.9 µM [falling, partial curve]. Further, under setting [2], the AC50 is 23.1 µM [falling, partial curve].
Consider `COc1cc(C(=O)OCC(C)=O)ccc1OCc1c(C)noc1C`, for which the cell number change was 18.1%. Further, under setting [1], the AC50 was 3.66 µM [rising, single point]. Further, under setting [2], the half-maximal activity concentration (AC50) is 20.6 µM [rising, single point].
Turning to `COc1ccc(NC(=O)COc2ccc(C)nc2[N+](=O)[O-])cc1S(N)(=O)=O`, the cell number change is -3.89%. For the same molecule, under setting [2], the AC50 is 18.4 µM [rising, single point].
Take `COc1ccc(/C(N)=N/OC(=O)/C=C/c2ccccc2)cc1`: the cell number change stood at 7.92%.
Take `Fc1cccc2sc(N3CCCC3)nc12`: the cell number change was -14.8%. In addition, the AC50 under setting [2] is 16.4 µM [falling, single point].
As for `CCN(CC)C(=O)c1ccc(/C=C/c2c[nH]c3ccccc23)[n+](C)c1`, the cell number change is 9.68%. Moreover, the AC50 under setting [2] was 32.6 µM [falling, single point].
Regarding `CCOC(=O)c1sc(N)c(C#N)c1COC(=O)CNC(=O)c1cc(OC)c(OC)c(OC)c1`, the cell number change is 53.1%. Under setting [1], the AC50 is 0.164 µM [rising, full curve].
Take `O=C(O)c1cn(Cc2cccnc2)c(=O)c2ccccc12`: the cell number change was -34.7%. Moreover, the half-maximal activity concentration (AC50) under setting [1] was 14.6 µM [falling, partial curve].
With `CCOc1ccc(N/C=C/C(=O)c2ccccc2)c([N+](=O)[O-])c1`, the cell number change is -9.58%.
In the case of `COc1ccc(-c2ccnc3c(C#N)cnn23)cc1`, the cell number change came to 21.3%. The half-maximal activity concentration (AC50) under setting [1] was 0.13 µM [rising, full curve, poor fit]. Further, the AC50 under setting [2] is 32.6 µM [rising, single point].
`CC1(C)CC(=O)C2=C(C1)OC1OC(=O)CC21C` (configuration not stated): the cell number change worked out at 38.5%. In addition, under setting [1], the concentration at half-maximal activity (AC50) is 0.517 µM [rising, partial curve, poor fit].
